The text below walks through data of PMC5327418.

Sequences of proteins named here, by UniProt entry; tags and fusion partners are left off.
UniProt P32569: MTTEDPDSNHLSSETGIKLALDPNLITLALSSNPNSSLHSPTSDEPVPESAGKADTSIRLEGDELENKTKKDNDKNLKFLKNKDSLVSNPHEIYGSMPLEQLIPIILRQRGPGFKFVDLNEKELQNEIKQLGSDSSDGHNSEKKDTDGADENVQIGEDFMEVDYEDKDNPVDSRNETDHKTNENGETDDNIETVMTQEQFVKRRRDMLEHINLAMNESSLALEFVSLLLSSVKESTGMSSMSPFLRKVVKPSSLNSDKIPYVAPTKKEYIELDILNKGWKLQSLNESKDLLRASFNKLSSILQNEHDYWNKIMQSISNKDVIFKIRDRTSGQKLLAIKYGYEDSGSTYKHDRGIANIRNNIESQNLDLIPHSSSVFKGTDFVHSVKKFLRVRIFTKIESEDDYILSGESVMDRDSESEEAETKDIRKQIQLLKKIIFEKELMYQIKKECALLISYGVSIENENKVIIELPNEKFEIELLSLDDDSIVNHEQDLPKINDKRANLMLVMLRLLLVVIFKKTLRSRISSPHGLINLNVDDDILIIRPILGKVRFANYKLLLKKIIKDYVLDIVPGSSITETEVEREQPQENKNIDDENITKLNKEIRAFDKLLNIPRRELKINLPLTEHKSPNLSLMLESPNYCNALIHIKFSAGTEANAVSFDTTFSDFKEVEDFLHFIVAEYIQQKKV

These are yes or no findings as the source states them, for the method shown. In cells and extracts the contact can be indirect. These calls come from enrichment with a bait or labelling near it, and not all partners need be listed.

The assay has as its target Med17-HA (S. cerevisiae (endogenous in S288c)) (UniProt P32569). The assay is described as follows: affinity purification with mass spectrometry; CoIP of Med17-HA on anti-HA magnetic beads from cryoground yeast lysate, 2 h at 4 °C; 20 mM HEPES pH 7.5, 300 mM KOAc, 10% glycerol, 0.01% NP-40, 6 mM MnSO4, 1 mM DTT, Cyanase nuclease; parallel control CoIP from 15N-labelled wild type cells, mixing after purification (MAP); GeLC-MS/MS, three biological replicates.

B1: Yap1 (protein, UniProt P19880 1-650)
chain: MSVSTAKRSLDVVSPGSLAEFEGSKSRHDEIENEHRRTGTRDGEDSEQPKKKGSKTSKKQDLDPETKQKRTAQNRAAQRAFRERKERKMKELEKKVQSLESIQQQNEVEATFLRDQLITLVNELKKYRPETRNDSKVLEYLARRDPNLHFSKNNVNHSNSEPIDTPNDDIQENVKQKMNFTFQYPLDNDNDNDNSKNVGKQLPSPNDPSHSAPMPINQTQKKLSDATDSSSATLDSLSNSNDVLNNTPNSSTSMDWLDNVIYTNRFVSGDDGSNSKTKNLDSNMFSNDFNFENQFDEQVSEFCSKMNQVCGTRQCPIPKKPISALDKEVFASSSILSSNSPALTNTWESHSNITDNTPANVIATDATKYENSFSGFGRLGFDMSANHYVVNDNSTGSTDSTGSTGNKNKKNNNNSDDVLPFISESPFDMNQVTNFFSPGSTGIGNNAASNTNPSLLQSSKEDIPFINANLAFPDDNSTNIQLQPFSESQSQNKFDYDMFFRDSSKEGNNLFGEFLEDDDDDKKAANMSDDESSLIKNQLINEEPELPKQYLQSVPGNESEISQKNGSSLQNADKINNGNDNDNDNDVVPSKEGSLLRCSEIWDRITTHPKYSDIDVDGLCSELMAKAKCSERGVVINAEDVQLALNKHMN
In the case of B1, the binding result was “binds”.

B2: Imb4 (protein, UniProt P40069 1-1113)
chain: MDQQFLSQLEQTLHAITSGVGLKEATKTLQTQFYTQPTTLPALIHILQNGSDDSLKQLAGVEARKLVSKHWNAIDESTRASIKTSLLQTAFSEPKENVRHSNARVIASIGTEELDGNKWPDLVPNLIQTASGEDVQTRQTAIFILFSLLEDFTSSLSGHIDDFLALFSQTINDPSSLEIRSLSAQALNHVSALIEEQETINPVQAQKFAASIPSVVNVLDAVIKADDTMNAKLIFNCLNDFLLLDSQLTGNFIVDLIKLSLQIAVNSEIDEDVRVFALQFIISSLSYRKSKVSQSKLGPEITVAALKVACEEIDVDDELNNEDETGENEENTPSSSAIRLLAFASSELPPSQVASVIVEHIPAMLQSANVFERRAILLAISVAVTGSPDYILSQFDKIIPATINGLKDTEPIVKLAALKCIHQLTTDLQDEVAKFHEEYLPLIIDIIDSAKNIVIYNYATVALDGLLEFIAYDAIAKYLDPLMNKLFYMLESNESSKLRCAVVSAIGSAAFAAGSAFIPYFKTSVHYLEKFIQNCSQIEGMSEDDIELRANTFENISTMARAVRSDAFAEFAEPLVNSAYEAIKTDSARLRESGYAFIANLAKVYGENFAPFLKTILPEIFKTLELDEYQFNFDGDAEDLAAFADSANEEELQNKFTVNTGISYEKEVASAALSELALGTKEHFLPYVEQSLKVLNEQVDESYGLRETALNTIWNVVKSVLLASKVEPESYPKGIPASSYVNADVLAVIQAARETSMGNLSDEFETSMVITVMEDFANMIKQFGAIIIMDNGDSSMLEALCMQVLSVLKGTHTCQTIDIEEDVPRDEELDASETEATLQDVALEVLVSLSQALAGDFAKVFDNFRPVVFGLFQSKSKNKRSSAVGAASELALGMKEQNPFVHEMLEALVIRLTSDKSLEVRGNAAYGVGLLCEYASMDISAVYEPVLKALYELLSAADQKALAAEDDEATREIIDRAYANASGCVARMALKNSALVPLEQTVPALLAHLPLNTGFEEYNPIFELIMKLYQENSPVITNETPRIIEIFSAVFTKENDRIKLEKESTLGREENMERLKQFQTEEMKHKVIELLKYLNTTYNGIVAQNPVLAAVIA
As for B2, the binding entry is listed as “binds”.

B3: Pdr1 (protein, UniProt P12383 1-1068)
chain: MRGLTPKNGVHIETGPDTESSADSSNFSTGFSGKIRKPRSKVSKACDNCRKRKIKCNGKFPCASCEIYSCECTFSTRQGGARIKNLHKTSLEGTTVQVKEETDSSSTSFSNPQRCTDGPCAVEQPTKFFENFKLGGRSSGDNSGSDGKNDDDVNRNGFYEDDSESQATLTSLQTTLKNLKEMAHLGTHVTSAIESIELQISDLLKRWEPKVRTKELATTKFYPNKSIETQLMKNKYCDVVHLTRYAAWSNNKKDQDTSSQPLIDEIFGLYSPFQFLSLQGIGKCFQNYRSKSKCEIFPRTAKETIYIMLRFFDVCFHHINQGCVSIANPLENYLQKMNLLPSTPSSISSAGSPNTAHTKSHVALVINHLPQPFVRNITGISNSELLSEMNNDISMFGILLKMLDMHKNSYQNFLMEITSNPSVAKNTQSIDVLQEFIHYCQAGEALIALCYSYYNSTLYNYVDFTCDITHLEQLLYFLDLLFWLSEIYGFEKVLNVAVHFVSRVGLSRWEFYVGLDENFAERRRNLWWKAFYFEKTLASKLGYPSNIDDSKINCLLPKNFRDVGFLDNRDFIENVHLVRRSEAFDNMCISDLKYYGELAVLQIVSHFSSSVLFNEKFTSIRNTSKPSVVREKLLFEVLEIFNETEMKYDAIKEQTGKLFDIAFSKDSTELKVSREDKIMASKFVLFYEHHFCRMVNESDNIVARLCVHRRPSILIENLKIYLHKIYKSWTDMNKILLDFDNDYSVYRSFAHYSISCIILVSQAFSVAEFIKVNDVVNMIRVFKRFLDIKIFSENETNEHVFNSQSFKDYTRAFSFLTIVTRIMLLAYGESSSTNLDVISKYIDENAPDLKGIIELVLDTNSCAYRFLLEPVQKSGFHLTVSQMLKNRKFQEPLMSNEDNKQMKHNSGKNLNPDLPSLKTGTSCLLNGIESPQLPFNGRSAPSPVRNNSLPEFAQLPSFRSLSVSDMINPDYAQPTNGQNNTQVQSNKPINAQQQIPTSVQVPFMNTNEINNNNNNNNNNKNNINNINNNNSNNFSATSFNLGTLDEFVNNGDLEDLYSILWSDVYPDS
B3: the binding result is listed as “binds”.

B4: Sxm1 (protein, UniProt Q04175 1-944)
chain: MVQEQAILSCIEQTMVADAKIIKEAEQQLFEFQKQPGFTSFLLNIVSDDNFALNVRLSSAIYLKNKIHRSWDTKREDGIKADEKLSIKERLIETLVKNCENNHIRPILTETINGILVGQEDWDLAPIIKNLLSSGDASYIYPGLLLLFQLCKAHRWDMVGSRDYIDSVIEELFPIVEGIASNIGSQTDYRSNEILYLILKSFKYACLNNLPQYFSQPERIMSWVQLHLYLCSKPLPVEVMELDPADRSLDKRVKVNKWGFGNLNRFLQRYNKITKAITKEFIDYIFNTIVPIILREFFKDIEAWGNNSLWLSDSSLYFLISFLEKCVTIDQLYPLIEPHLQIIFENVIFPCLCANEQSIELLEDDQEEYTRRYFDINREGSTPDAASADFIFLIGSKRPEKLNNILPFINDIFTRFDANSSDINMAFKEEGALRTLSNLFSFIDEPSVLENIFGHFIVPLLSQDKYMFLVARSLETIALYSEEFKDMNILSQLFELTYTNFLNSNVLPVQIEAADAIKCLIVSNPQIHPAVSAHVPGMMEKLLKLSKIFEIDILSEVMEALVERFSDELSPFAKDLASNLVEQFLRIAQALVENPSETYSASDQEQEIQASGLLQTMTTMVMSMNKVPLIESLAPVVKFVVLHAQISFITEAVDLLDALTISSHLLYNQIAPPIWELLHDILDSFQTYAMDYFEAYSIFFETIVMTGFPQDQTYVQPLLEILSAKLESEVDYDIEHVMQILMYFALSMRDIPLFSKAIKVSTNDELGLDSKCIVKLGLANLFAKPIETLQIMENEGFTINFFTNWFNEKFYSVFAIKLQVLVILTLLKMPEVPNSVSPLLNNLTNKLVELTLSLPKAIRNRDAVTEGKSLEGDLTPEEEEEYFIECDDDMKETVLDQINVFQEVHTFFKNLQNEDAGKYEKIINYLDESKRDSLQVILEFVSQH
As to B4, the binding result was “binds”.

B5: Imb3 (protein, UniProt P32337 1-1089)
chain: MSALPEEVNRTLLQIVQAFASPDNQIRSVAEKALSEEWITENNIEYLLTFLAEQAAFSQDTTVAALSAVLFRKLALKAPPSSKLMIMSKNITHIRKEVLAQIRSSLLKGFLSERADSIRHKLSDAIAECVQDDLPAWPELLQALIESLKSGNPNFRESSFRILTTVPYLITAVDINSILPIFQSGFTDASDNVKIAAVTAFVGYFKQLPKSEWSKLGILLPSLLNSLPRFLDDGKDDALASVFESLIELVELAPKLFKDMFDQIIQFTDMVIKNKDLEPPARTTALELLTVFSENAPQMCKSNQNYGQTLVMVTLIMMTEVSIDDDDAAEWIESDDTDDEEEVTYDHARQALDRVALKLGGEYLAAPLFQYLQQMITSTEWRERFAAMMALSSAAEGCADVLIGEIPKILDMVIPLINDPHPRVQYGCCNVLGQISTDFSPFIQRTAHDRILPALISKLTSECTSRVQTHAAAALVNFSEFASKDILEPYLDSLLTNLLVLLQSNKLYVQEQALTTIAFIAEAAKNKFIKYYDTLMPLLLNVLKVNNKDNSVLKGKCMECATLIGFAVGKEKFHEHSQELISILVALQNSDIDEDDALRSYLEQSWSRICRILGDDFVPLLPIVIPPLLITAKATQDVGLIEEEEAANFQQYPDWDVVQVQGKHIAIHTSVLDDKVSAMELLQSYATLLRGQFAVYVKEVMEEIALPSLDFYLHDGVRAAGATLIPILLSCLLAATGTQNEELVLLWHKASSKLIGGLMSEPMPEITQVYHNSLVNGIKVMGDNCLSEDQLAAFTKGVSANLTDTYERMQDRHGDGDEYNENIDEEEDFTDEDLLDEINKSIAAVLKTTNGHYLKNLENIWPMINTFLLDNEPILVIFALVVIGDLIQYGGEQTASMKNAFIPKVTECLISPDARIRQAASYIIGVCAQYAPSTYADVCIPTLDTLVQIVDFPGSKLEENRSSTENASAAIAKILYAYNSNIPNVDTYTANWFKTLPTITDKEAASFNYQFLSQLIENNSPIVCAQSNISAVVDSVIQALNERSLTEREGQTVISSVKKLLGFLPSSDAMAIFNRYPADIMEKVHKWFA
As to B5, the binding result was “binds”.

B6: Pex19 (protein, UniProt Q07418 1-342)
chain: MNENEYDNFDDLDDLLDEDPTKLDEAEPDDVQAKGSVYNDSENKEKNAESKDSDGVQVANESEEDPELKEMMVDLQNEFANLMKNNGNENNVKTEDFNKLISALEEAAKVPHQQMEQGCSSLKSNSTDKGTVNGSNPGFKNIVSNTLDRLKENGNKVDTSLAEETKESQRSGQNNNIDDILSQLLDQMVASGGKESAENQFDLKDGEMDDAITKILDQMTSKEVLYEPMKEMRSEFGVWFQENGENEEHKEKIGTYKRQFNIVDEIVNIYELKDYDELKHKDRVTELLDELEQLGDSPIRSANSPLKHGNEEEELMKMLEIDGNDPNLGNLDKELTDGCKQQ
For the molecule B6, the binding entry was “binds”.
